# Results: US10434111B2 (THE REGENTS OF THE UNIVERSITY OF CALIFORNIA, priority 2004, dated 2019)
# Assay: general procedure: Fmoc solid-phase peptide synthesis; Fmoc-Cys(Trt)-Wang resin (Novabiochem)
# Details: conjugation step
substance,measurement,value
H-DYKDDDDKC-OH,conjugation yield,49%
